PubChem BioAssay AID1224826, NIAID | 2016
Purpose: 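Regulators of Tlr4 signalling leading to Tnf-alpha expression in macrophages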 (primary screen). Cell system: RAW264.7 G9 macrophages from mouse bearing reporters for p65 (GFP) and the Tnf promoter (mCherry). Knock-down reagent: siRNA pool against mouse genes, 100 nM. Duration: 16 h of LPS stimulation, after 2 days of siRNA transfection. Treatment: bacterial lipopolysaccharide (Salmonella minnesota R595), 10 ng/ml. Measurement: 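Imaged Tnf reporter mCherry in nuclei, minus background, normalised per plate to the median and expressed as robust z-scores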. Reading the numbers: Tnf reporter robust z-score: higher = stronger Tnf promoter reporter signal after LPS; Tnf reporter intensity: higher = stronger Tnf promoter reporter signal. Hit rule: 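a well counts as active at a score of -1.3 or below (Tlr4 knock-down control median) or above 3 (raised signal); controls and wells holding fewer than 50 cells are excluded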. Calls: active = Tnf reporter clearly lowered or raised; inactive = no clear change in Tnf reporter.
Shown is an unselected part of about 17,000 deposited reagents. Over the whole deposit, about 1,110 (6.6%) got an active call. 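Active means lowered or raised reporter signal; replicate intensities are raw and not normalised per plate.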

Gene,Tnf reporter robust z-score,fewer than 50 cells in well,"Tnf reporter intensity, replicate 1","Tnf reporter intensity, replicate 2",Call
Nrep,0.3,enough cells in well,220,176,inactive
AI837181,2.84,enough cells in well,392,261,inactive
Dpp4,0.86,enough cells in well,274,290,inactive
Srd5a3,-1.05,enough cells in well,69.1,60.2,inactive
A930024E05Rik,-0.52,enough cells in well,152,133,inactive
Spout1,0.78,enough cells in well,210,191,inactive
Fmr1nb,,fewer than 50 cells per well; well left out of calls,143,71.4,inactive
Sspo,-0.36,enough cells in well,141,83.1,inactive
D630039A03Rik,-1.44,enough cells in well,109,73.4,active
Map3k19,0.21,enough cells in well,213,170,inactive
Tlk2,-0.03,enough cells in well,159,142,inactive
Hdac3,-0.8,enough cells in well,172,139,inactive
C1qtnf7,0.3,enough cells in well,113,196,inactive
Rplp1,-0.56,enough cells in well,85.6,98.5,inactive
Pcdh15,0.32,enough cells in well,300,175,inactive
Cyp2c70,-1.34,enough cells in well,105,92.5,active
Mt1,-1.73,enough cells in well,131,23.6,active
Slco3a1,,fewer than 50 cells per well; well left out of calls,101,80.1,inactive
Wdfy2,-0.06,enough cells in well,120,78,inactive
Hoxa6,1.02,enough cells in well,359,201,inactive
Krt18,-0.07,enough cells in well,232,148,inactive
G3bp2,1.65,enough cells in well,312,165,inactive
Ola1,0.25,enough cells in well,201,67.4,inactive
Dmtf1l,,fewer than 50 cells per well; well left out of calls,458,15.7,inactive
Rps7,-1.5,enough cells in well,58.1,57.8,active
Hspa12a,4.36,enough cells in well,455,338,active
Zfp819,,fewer than 50 cells per well; well left out of calls,201,46.4,inactive
Grm8,0.21,enough cells in well,219,336,inactive
S100a5,0.05,enough cells in well,292,224,inactive
Cdk13,0.56,enough cells in well,264,161,inactive
Ntf5,1.03,enough cells in well,316,252,inactive
Med31,,fewer than 50 cells per well; well left out of calls,165,59,inactive

Continued, starting with the last 8 of the part before.
Gene,Tnf reporter robust z-score,fewer than 50 cells in well,"Tnf reporter intensity, replicate 1","Tnf reporter intensity, replicate 2",Call
Rps7,-1.5,enough cells in well,58.1,57.8,active
Hspa12a,4.36,enough cells in well,455,338,active
Zfp819,,fewer than 50 cells per well; well left out of calls,201,46.4,inactive
Grm8,0.21,enough cells in well,219,336,inactive
S100a5,0.05,enough cells in well,292,224,inactive
Cdk13,0.56,enough cells in well,264,161,inactive
Ntf5,1.03,enough cells in well,316,252,inactive
Med31,,fewer than 50 cells per well; well left out of calls,165,59,inactive
Rbfa,-0.61,enough cells in well,226,57.9,inactive
Iah1,-1.06,enough cells in well,119,40.1,inactive
Mark1,0.27,enough cells in well,209,180,inactive
Cops2,0.59,enough cells in well,255,269,inactive
Noc2l,-1.13,enough cells in well,142,102,inactive
Dok4,1.35,enough cells in well,308,328,inactive
Nup43,,fewer than 50 cells per well; well left out of calls,295,45.2,inactive
Acss2,2.55,enough cells in well,333,293,inactive
Brd3,-0.97,enough cells in well,104,101,inactive
Dna2,0.06,enough cells in well,206,108,inactive
Tmbim6,-0.75,enough cells in well,206,80.1,inactive
Or6c33,-0.33,enough cells in well,120,103,inactive
Cdk5r1,0.5,enough cells in well,300,124,inactive
Kat7,-2.1,enough cells in well,69.8,32.7,active
Cat,2.47,enough cells in well,435,169,inactive
Trip6,-0.1,enough cells in well,198,251,inactive
Csf2,-0.42,enough cells in well,200,176,inactive
Chpf2,,fewer than 50 cells per well; well left out of calls,82.1,48.9,inactive
Snta1,-1,enough cells in well,70.2,62.1,inactive
S1pr2,-0.19,enough cells in well,170,332,inactive
Or2ag19,0.26,enough cells in well,116,128,inactive
Atp6v1g1,0.47,enough cells in well,206,183,inactive
Pgls,-1.36,enough cells in well,83,68.9,active
Hmg20b,-0.95,enough cells in well,186,99,inactive
Ftsj1,0.3,enough cells in well,248,291,inactive
Prss16,-0.81,enough cells in well,156,160,inactive
